From patent US20140005164A1, “WNT PATHWAY ANTAGONISTS” (Siena Biotech S.p.A., priority 2011, published 2014)
Some results were stated once for a whole list of compounds, not compound by compound. At least one compound was matched to its structure with a doubt left.

system: DBTRG-05MG glioblastoma cell line; experiment: Renilla read out (TA-Renilla, Wnt-independent internal control for cell number and toxicity); assay type: cell-based; conditions: TA-Renilla luciferase, 24 hours after compound addition

SMILES	effect in the renilla read out
COc1ccc2c(c1)n(C[C@H]1CC[C@H](C(=O)Nc3ccnc(N4CCOCC4)c3)CC1)c(=O)n2C [Example 50]	negligible effect
COc1ccc2c(c1)n(C[C@H]1CC[C@H](C(=O)N3[C@H](C)CCC[C@@H]3C)CC1)c(=O)n2C [Example 59]	negligible effect
COc1ccc2c(c1)n(C[C@H]1CC[C@H](c3nnc(C4CCOCC4)o3)CC1)c(=O)n2C [Example 145]	negligible effect
Cn1c(=O)n(C[C@H]2CC[C@H](C(=O)Nc3ccncc3)CC2)c2[nH]c(=O)ccc21 [Example 139]	negligible effect
COc1ccc(COc2ccc3c(c2)n(C[C@H]2CC[C@H](C(=O)Nc4ccncc4)CC2)c(=O)n3C)cc1 [Example 6, Trans-4-[6-(4-Methoxy-benzyloxy)-3-methyl-2-oxo-2,3-dihydro-benzoimidazol-1-ylmethyl]-cyclohexanecarboxylic acid pyridin-4-ylamide]	negligible effect
COc1ccc2c(c1)n(C[C@H]1CC[C@H](C(=O)N3CCN(c4cncnc4)CC3)CC1)c(=O)n2C [Example 20, 5-Methoxy-1-methyl-3-[trans-4-(4-pyrimidin-5-yl-piperazine-1-carbonyl)-cyclohexylmethyl]-1,3-dihydro-benzoimidazol-2-one]	negligible effect
COCCNc1ccc2c(n1)n(C[C@H]1CC[C@H](C(=O)Nc3ccncc3)CC1)c(=O)n2C [Example 125]	negligible effect
COc1ccc2c(c1)n(C[C@H]1CC[C@H](C(=O)N3CCN(c4cnn(C)c4)CC3)CC1)c(=O)n2C [Example 141]	negligible effect
COc1cc2c(cc1F)n(C)c(=O)n2C[C@H]1CC[C@H](C(=O)Nc2ccncc2)CC1 [Example 1, Trans-4-(5-Fluoro-6-Methoxy-3-methyl-2-oxo-2,3-dihydro-benzoimidazol-1-ylmethyl)-cyclohexanecarboxylic acid pyridine-4-ylamide]	negligible effect
Cn1c(=O)n(C[C@H]2CC[C@H](C(=O)Nc3ccncc3)CC2)c2c(Cl)cccc21 [Example 28]	negligible effect
Cn1c(=O)n(C[C@H]2CC[C@H](C(=O)Nc3ccncc3)CC2)c2nc(OCC(F)(F)F)ccc21 [Example 171]	negligible effect
COCCOc1ccc2c(c1)n(C[C@H]1CC[C@H](c3nnc(-c4cccnc4)o3)CC1)c(=O)n2C [Example 146]	negligible effect
COc1cc2c(cc1Cl)n(C[C@H]1CC[C@H](C(=O)N3CCN(c4ncccn4)CC3)CC1)c(=O)n2C [Example 46]	negligible effect
Cc1cc(NC(=O)[C@H]2CC[C@H](Cn3c(=O)n(C)c4cc(Cl)ccc43)CC2)ccn1 [Example 48]	negligible effect
COc1ccc2c(c1)n(C[C@H]1CC[C@H](c3nnc(-c4ccnnc4)o3)CC1)c(=O)n2C [Example 164]	negligible effect
Cn1c(=O)n(C[C@H]2CC[C@H](C(=O)Nc3ccncc3)CC2)c2cc(OC(F)F)ccc21 [Example 165]	negligible effect
COCCN(C)c1ccc2c(n1)n(C[C@H]1CC[C@H](C(=O)Nc3ccncc3)CC1)c(=O)n2C [Example 108]	negligible effect
Cn1c(=O)n(C[C@H]2CC[C@H](C(=O)Nc3ccncc3)CC2)c2nc(OCc3ccccn3)ccc21 [Example 156]	negligible effect
Cn1c(=O)n(C[C@H]2CC[C@H](C(=O)Nc3ccncc3)CC2)c2nc(OCCN3CCOCC3)ccc21 [Example 158]	negligible effect
COc1cc2c(cc1F)n(C)c(=O)n2C[C@H]1CC[C@H](C(=O)N2CC=C(c3cnn(C)c3)CC2)CC1 [Example 143]	negligible effect
COCCOc1ccc2c(c1)n(C[C@H]1CC[C@H](C(=O)Nc3ccncc3)CC1)c(=O)n2C [Example 72]	negligible effect
COc1ccc2c(c1)n(C[C@H]1CC[C@H](c3nnc(-c4cn(C)nc4C(F)(F)F)o3)CC1)c(=O)n2C [Example 11, 5-Methoxy-1-methyl-3-{trans 4-[5-(1-methyl-3-trifluoromethyl-1H-pyrazol-4-yl)-[1,3,4]oxadiazol-2-yl]-cyclohexylmethyl}-1,3-dihydro-benzoimidazol-2-one]	negligible effect
COc1ccc2c(c1)n(C[C@H]1CC[C@H](c3nnc(-c4cc(C)nn4C)o3)CC1)c(=O)n2C [Example 149]	negligible effect
COc1ccc2c(c1)n(C[C@H]1CC[C@H](C(=O)Nc3ccc(OC)nc3)CC1)c(=O)n2C [Example 31]	negligible effect
COCCOc1cc2c(cc1F)n(C)c(=O)n2C[C@H]1CC[C@H](C(=O)Nc2ccncc2)CC1 [Example 186]	negligible effect
COCCOc1ccc2c(c1)n(C[C@H]1CC[C@H](C(=O)Nc3ccncn3)CC1)c(=O)n2C [Example 122]	negligible effect
COc1ccc2c(c1)n(C[C@H]1CC[C@H](c3nnc(-c4cccc(OC(F)F)c4)o3)CC1)c(=O)n2C [Example 118]	negligible effect

SMILES	effect in the renilla read out
COc1ccc2c(c1)n(C[C@H]1CC[C@H](C(=O)N3CCC(F)(F)CC3)CC1)c(=O)n2C [Example 35]	negligible effect
CC(=O)N1CCN(C(=O)[C@H]2CC[C@H](Cn3c(=O)n(C)c4ccc(Br)nc43)CC2)CC1 [Example 3, 3-[trans 4-(4-Acetyl-piperazine-1-carbonyl)cyclohexylmethyl]-5-bromo-1-methyl-1,3-dihydro-imidazo[4,5-b]pyridin-2-one]	negligible effect
CC(=O)N1CCN(C(=O)[C@H]2CC[C@H](Cn3c(=O)n(C)c4ccc(CCCC#N)nc43)CC2)CC1 [Example 101]	negligible effect
COc1cc2c(cc1F)n(C)c(=O)n2C[C@H]1CC[C@H](C(=O)N2CCN(c3cnn(C)c3)CC2)CC1 [Example 183]	negligible effect
COc1ccc2c(c1)n(C[C@H]1CC[C@H](C(=O)N3CCC(c4noc(C)n4)CC3)CC1)c(=O)n2C [Example 84]	negligible effect
COCC#Cc1ccc2c(n1)n(C[C@H]1CC[C@H](C(=O)Nc3ccncc3)CC1)c(=O)n2C [Example 115]	negligible effect
CC(=O)N1CCN(C(=O)[C@H]2CC[C@H](Cn3c(=O)n(C)c4ccc(C5CC5)cc43)CC2)CC1 [Example 68]	negligible effect
Cn1c(=O)n(C[C@H]2CC[C@H](C(=O)Nc3ccncc3)CC2)c2nc(NCc3ccco3)ccc21 [Example 127]	negligible effect
COc1ccc2c(c1)n(C[C@H]1CC[C@H](c3nnc(-c4ccc(C)nc4)o3)CC1)c(=O)n2C [Example 98]	negligible effect
COCCNc1ccc2c(c1)n(C[C@H]1CC[C@H](C(=O)N3CCN(C(C)=O)CC3)CC1)c(=O)n2C [Example 15, 3-[trans-4-(4-Acetyl-piperazine-1-carbonyl)-cyclohexylmethyl]-5-(2-methoxy-ethylamino)-1-methyl-1,3-dihydro-benzoimidazol-2-one]	negligible effect
COc1ccc2c(c1)n(C[C@H]1CC[C@H](C(=O)Nc3ccnc(Cl)c3)CC1)c(=O)n2C [Example 32]	negligible effect
COc1ccc2c(c1)n(C[C@H]1CC[C@H](C(=O)Nc3ccc(-c4nnco4)cc3)CC1)c(=O)n2C [Example 66]	negligible effect
Cn1cc(-c2nnc([C@H]3CC[C@H](Cn4c(=O)n(C)c5ccc(C#N)cc54)CC3)o2)cn1 [Example 162]	negligible effect
Cn1c(=O)n(C[C@H]2CC[C@H](C(=O)Nc3ccnc(N4CCOCC4)c3)CC2)c2cc(Cl)ccc21 [Example 41]	negligible effect
COc1ccc2c(c1)n(C[C@H]1CC[C@H](c3c[nH]c(NC(C)=O)n3)CC1)c(=O)n2C [Example 19, N-{4-[trans-4-(6-Methoxy-3-methyl-2-oxo-2,3-dihydro-benzoimidazol-1-ylmethyl)-cyclohexyl]-1H-imidazol-2-yl}-acetamide]	negligible effect
COC/C=C/c1ccc2c(c1)n(C[C@H]1CC[C@H](C(=O)Nc3ccncc3)CC1)c(=O)n2C [Example 113]	negligible effect
COc1ccc2c(c1)n(C[C@H]1CC[C@H](C(=O)Nc3cccc(C)n3)CC1)c(=O)n2C [Example 34]	negligible effect
COc1ccc2c(c1)n(C[C@H]1CC[C@H](c3nnc(-c4ccc(OC)c(F)c4)o3)CC1)c(=O)n2C [Example 112]	negligible effect
Cn1c(=O)n(C[C@H]2CC[C@H](C(=O)N3CCN(c4ncccn4)CC3)CC2)c2ccc(Cl)cc21 [Example 55]	negligible effect
COCCNc1ccc2c(c1)n(C[C@H]1CC[C@H](C(=O)Nc3ccncc3)CC1)c(=O)n2C [Example 78]	negligible effect
COCCN(C)c1ncccc1NC(=O)[C@H]1CC[C@H](Cn2c(=O)n(C)c3ccc(OC)cc32)CC1 [Example 45]	negligible effect
COCCOc1cc2c(cc1F)n(C)c(=O)n2C[C@H]1CC[C@H](C(=O)N2CCOCC2)CC1 [Example 177]	negligible effect
COc1ccc2c(c1)n(C[C@H]1CC[C@H](C(=O)N3C[C@@H](C)O[C@@H](C)C3)CC1)c(=O)n2C [Example 61]	negligible effect
CN(C)CC#Cc1ccc2c(n1)n(C[C@H]1CC[C@H](C(=O)Nc3ccncc3)CC1)c(=O)n2C [Example 119]	negligible effect
COCCOc1cc(NC(=O)[C@H]2CC[C@H](Cn3c(=O)n(C)c4c(Cl)cccc43)CC2)ccn1 [Example 42]	negligible effect
Cn1c(=O)n(C[C@H]2CC[C@H](C(=O)Nc3ccncc3)CC2)c2cc(C3CC3)ccc21 [Example 69]	negligible effect
